Reference: PubChem BioAssay AID493014 (National Center for Advancing Translational Sciences (NCATS), 2011)
About 170 (0.05%) of roughly 340,000 compounds were called active. The shares of active, inactive and inconclusive entries below differ from those in the screen. Calls follow the shape of the dose curve; as a rule, active = well fitted inhibition curve with a large enough effect in the signal ratio, with a control signal flat (not every such curve was filed as active); inconclusive = small, poorly fitted or top-dose-only effect, or effect the other way, or a change in a side signal; inactive = flat fitted curve, though single readings scatter; the % refers to the signal ratio. Where the call is inconclusive, the potency comes from a doubtful curve fit.

experiment: qHTS Assay to Find Inhibitors of Chronic Active B-Cell Receptor Signaling; settings: ABC-DLBCL IkBa-CBG/CBR reporter, luminescence ratio (green luciferase fused to IkBa over red control in TMD8 lymphoma cells), 4 h; activity change, negative = inhibition: at 46.1 µM (top of the series);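 as to activity change, negative = inhibition: plate controls were basal doxycycline-induced cells for no effect and cells given 10 µM MG132 for full effect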
In short: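 Compounds up to 46 uM were incubated four hours with TMD8 cells whose green CBG68 luciferase is fused to IkappaBalpha; red CBR luminescence normalised the signal, and concentration-effect curves were fitted to fusion, red and ratio data.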
Potency is read from the fitted curve at half-maximal effect.

Compound | Potency | activity change, negative = inhibition
Cc1cccc(/C=N/Nc2cc(N3CCOCC3)nc(N3CCOCC3)n2)c1 | inconclusive: 10.3 µM [falling, partial curve, poor fit] | –
O=[N+]([O-])c1ccc(CSc2nnc(SCc3ccccc3)s2)cc1 | – | inactive: 0.057%
O=C(CSc1ccccn1)Nc1ccc2c(c1)OCCO2 | – | inactive: -21%
O=C(Nc1nonc1NC(=O)c1cccs1)c1cccs1 | inconclusive: 10 µM [rising, partial curve, poor fit] | –
COc1ccc(-c2cn3nc(SCC(=O)NCC4CCCO4)ccc3n2)cc1 (configuration not stated) | – | inconclusive: -6.43%
CC(C)(C)NC(=S)NC(=O)C12CC3CCC(CC(C3)C1)C2 | – | inactive: 9.86%
Cc1ccc(-c2csc(NC(=O)/C=C/c3ccco3)c2C(=O)O)cc1 | – | inconclusive: -16.1%
Cc1ccc(C)c(N2CCN(CCCNC(=O)CCC(=O)N3CCOc4ccc(Cl)cc43)CC2)c1 | – | inconclusive: -2.28%
O=C(OC(c1ccccc1)c1nccc2ccccc12)c1cc([N+](=O)[O-])cc([N+](=O)[O-])c1 (configuration not stated) | inconclusive: 29.1 µM [rising, partial curve, poor fit] | –
CCC(CC)C(=O)Nc1ccc(C(=O)Nc2cc(C)on2)cc1 | – | inconclusive: 9.38%
CC(=O)c1c(N2CCN(c3ccc(F)cc3)CC2)nc(=S)n(Cc2ccccc2)c1C | – | inactive: 3.23%
O/N=C/c1ccc(OCc2ccccc2)c(Br)c1 | – | inconclusive: -2.11%
COc1cc(/C=C/CN2CCC(Oc3ccc(C(=O)N4CCCC4)cc3)CC2)ccc1O | inconclusive: 8.91 µM [falling, partial curve, poor fit] | –
O=C(COC(=O)CC(c1ccccc1)c1ccccc1)NCc1ccc(Cl)cc1 | – | inconclusive: -11.9%
O=C(CCN1CCCCCC1)Nc1ccc(F)c(F)c1 | – | inconclusive: -5.01%
Nn1cnnc1N/N=C/c1cccc(Cl)c1Cl | inconclusive: 25.1 µM [falling, single point] | –
N#CC1(NC(=O)CN2CCN(S(=O)(=O)c3ccccc3F)CC2)CCCC1 | – | inconclusive: -0.983%
O=C(NCC1CCCO1)c1cc(S(=O)(=O)N2CCCCC2)ccc1Cl (configuration not stated) | – | inconclusive: 0.476%
OCC12COC(c3ccccc3)N1C(c1ccccc1)OC2 (configuration not stated) | – | inconclusive: -0.115%
COCCOc1ccc(C(F)(F)F)cc1Nc1nc2ccccc2o1 | inconclusive: 16.4 µM [falling, partial curve] | –
Cc1nc([N+](=O)[O-])c(Br)n1CC(=O)c1cccc([N+](=O)[O-])c1 | – | inconclusive: 20.7%
COc1ccc(C(=O)N2CCCC(C(=O)O)C2)c2ccccc12 (configuration not stated) | – | inactive: -2.16%

Nothing new here: two of the compounds above.
Compound | Potency | activity change, negative = inhibition
Cc1ccc(-c2csc(NC(=O)/C=C/c3ccco3)c2C(=O)O)cc1 | – | inconclusive: -16.1%
Cc1ccc(C)c(N2CCN(CCCNC(=O)CCC(=O)N3CCOc4ccc(Cl)cc43)CC2)c1 | – | inconclusive: -2.28%
